No constants are given. Whether binding was seen depends on the method and setting. Binding seen in cells or lysates may run through a third protein. Some binding calls cover weakened binding; strength is not graded here.
How the values were obtained:
Test in all cases: co-IP; EGFP-tagged teneurin bait (or EGFP-only control bait) co-transfected with tagRFP/Myc-tagged teneurin prey in Neuro2A cells; lysates collected after 2 DIV and immunoprecipitated with GFP-Trap agarose beads; blots probed with anti-myc tag (prey)
[1] = target: teneurin paralogue Tenm2, full length mouse (EGFP-tagged as bait; tagRFP/Myc-tagged as prey) (mouse) (UniProt Q9WTS5)
[2] = target: teneurin paralogue Tenm3, full length mouse (EGFP-tagged as bait; tagRFP/Myc-tagged as prey) (mouse) (UniProt Q9WTS6)
[3] = target: teneurin paralogue Tenm4, full length mouse (EGFP-tagged as bait; tagRFP/Myc-tagged as prey) (mouse) (UniProt Q3UHK6)
[4] = target: teneurin paralogue Tenm1, full length mouse (EGFP-tagged as bait; tagRFP/Myc-tagged as prey) (mouse) (UniProt Q9WTS4)

Chains of the proteins cited; added tags and fusions are not shown.
UniProt Q9WTS6: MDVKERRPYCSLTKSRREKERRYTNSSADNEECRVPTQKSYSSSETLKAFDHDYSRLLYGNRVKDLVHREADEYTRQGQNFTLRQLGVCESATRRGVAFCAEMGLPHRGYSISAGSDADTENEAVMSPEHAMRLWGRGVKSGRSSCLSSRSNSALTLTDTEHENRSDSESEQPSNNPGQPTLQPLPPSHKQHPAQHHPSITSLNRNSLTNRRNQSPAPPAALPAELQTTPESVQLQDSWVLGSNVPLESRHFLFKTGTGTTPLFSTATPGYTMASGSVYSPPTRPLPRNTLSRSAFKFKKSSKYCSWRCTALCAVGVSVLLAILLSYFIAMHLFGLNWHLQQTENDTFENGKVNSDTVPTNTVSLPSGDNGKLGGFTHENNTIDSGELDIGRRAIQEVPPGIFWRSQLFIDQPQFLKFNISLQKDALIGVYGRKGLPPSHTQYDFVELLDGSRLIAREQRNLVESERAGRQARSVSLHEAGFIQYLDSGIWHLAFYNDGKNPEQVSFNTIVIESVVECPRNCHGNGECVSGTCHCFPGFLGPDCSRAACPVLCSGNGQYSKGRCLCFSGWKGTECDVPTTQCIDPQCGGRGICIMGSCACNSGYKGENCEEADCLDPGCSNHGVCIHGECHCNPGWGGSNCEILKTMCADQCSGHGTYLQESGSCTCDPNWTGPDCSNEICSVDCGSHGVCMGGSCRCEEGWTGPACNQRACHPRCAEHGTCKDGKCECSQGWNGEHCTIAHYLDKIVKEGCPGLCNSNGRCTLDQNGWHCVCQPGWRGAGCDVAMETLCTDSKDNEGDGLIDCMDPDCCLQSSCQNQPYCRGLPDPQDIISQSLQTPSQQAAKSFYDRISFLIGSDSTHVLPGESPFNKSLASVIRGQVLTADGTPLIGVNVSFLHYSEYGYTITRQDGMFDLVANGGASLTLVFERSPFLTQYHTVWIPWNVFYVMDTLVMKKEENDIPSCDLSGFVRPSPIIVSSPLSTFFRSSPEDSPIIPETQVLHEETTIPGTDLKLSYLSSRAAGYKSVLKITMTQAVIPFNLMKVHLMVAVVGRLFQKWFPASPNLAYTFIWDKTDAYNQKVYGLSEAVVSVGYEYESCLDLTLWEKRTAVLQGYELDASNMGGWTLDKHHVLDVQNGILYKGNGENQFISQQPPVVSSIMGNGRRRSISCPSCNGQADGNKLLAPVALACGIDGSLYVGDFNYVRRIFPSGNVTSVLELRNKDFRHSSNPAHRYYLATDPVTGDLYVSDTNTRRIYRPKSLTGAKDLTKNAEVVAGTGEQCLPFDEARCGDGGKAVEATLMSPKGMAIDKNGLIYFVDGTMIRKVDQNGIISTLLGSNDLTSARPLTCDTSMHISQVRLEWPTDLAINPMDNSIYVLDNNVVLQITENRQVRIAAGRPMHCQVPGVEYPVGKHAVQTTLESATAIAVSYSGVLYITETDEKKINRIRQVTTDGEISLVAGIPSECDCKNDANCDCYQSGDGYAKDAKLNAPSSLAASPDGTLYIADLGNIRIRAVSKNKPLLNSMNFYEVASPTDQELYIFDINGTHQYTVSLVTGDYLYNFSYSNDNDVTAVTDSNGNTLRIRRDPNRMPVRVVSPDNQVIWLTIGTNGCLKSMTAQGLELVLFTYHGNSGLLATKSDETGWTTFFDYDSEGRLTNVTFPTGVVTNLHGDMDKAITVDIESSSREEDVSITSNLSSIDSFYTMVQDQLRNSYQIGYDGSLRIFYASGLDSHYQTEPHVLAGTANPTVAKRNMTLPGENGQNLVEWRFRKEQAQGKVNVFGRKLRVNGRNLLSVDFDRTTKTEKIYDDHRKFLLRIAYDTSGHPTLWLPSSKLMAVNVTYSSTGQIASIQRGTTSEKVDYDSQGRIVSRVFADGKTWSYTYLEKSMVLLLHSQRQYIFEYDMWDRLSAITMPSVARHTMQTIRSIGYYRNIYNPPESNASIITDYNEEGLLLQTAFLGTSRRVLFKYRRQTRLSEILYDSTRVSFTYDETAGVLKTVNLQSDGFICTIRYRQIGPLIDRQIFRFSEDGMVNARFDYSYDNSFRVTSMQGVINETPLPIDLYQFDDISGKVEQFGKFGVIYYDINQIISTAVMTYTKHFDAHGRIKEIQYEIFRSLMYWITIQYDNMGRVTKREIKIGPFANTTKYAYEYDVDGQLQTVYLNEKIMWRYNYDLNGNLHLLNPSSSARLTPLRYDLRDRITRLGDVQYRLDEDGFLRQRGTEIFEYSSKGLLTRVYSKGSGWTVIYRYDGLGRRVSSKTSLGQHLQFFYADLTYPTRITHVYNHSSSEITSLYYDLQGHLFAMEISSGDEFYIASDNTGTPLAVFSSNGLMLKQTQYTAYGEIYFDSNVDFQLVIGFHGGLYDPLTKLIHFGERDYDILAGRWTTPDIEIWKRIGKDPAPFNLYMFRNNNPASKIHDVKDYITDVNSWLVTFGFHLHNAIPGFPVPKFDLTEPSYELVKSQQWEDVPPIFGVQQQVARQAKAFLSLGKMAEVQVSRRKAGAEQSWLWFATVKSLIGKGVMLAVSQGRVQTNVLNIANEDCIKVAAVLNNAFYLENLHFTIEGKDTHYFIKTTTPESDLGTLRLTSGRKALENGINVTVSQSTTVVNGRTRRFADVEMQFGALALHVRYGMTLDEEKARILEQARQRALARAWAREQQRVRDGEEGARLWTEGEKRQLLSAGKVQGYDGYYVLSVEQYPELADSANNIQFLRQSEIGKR
UniProt Q3UHK6: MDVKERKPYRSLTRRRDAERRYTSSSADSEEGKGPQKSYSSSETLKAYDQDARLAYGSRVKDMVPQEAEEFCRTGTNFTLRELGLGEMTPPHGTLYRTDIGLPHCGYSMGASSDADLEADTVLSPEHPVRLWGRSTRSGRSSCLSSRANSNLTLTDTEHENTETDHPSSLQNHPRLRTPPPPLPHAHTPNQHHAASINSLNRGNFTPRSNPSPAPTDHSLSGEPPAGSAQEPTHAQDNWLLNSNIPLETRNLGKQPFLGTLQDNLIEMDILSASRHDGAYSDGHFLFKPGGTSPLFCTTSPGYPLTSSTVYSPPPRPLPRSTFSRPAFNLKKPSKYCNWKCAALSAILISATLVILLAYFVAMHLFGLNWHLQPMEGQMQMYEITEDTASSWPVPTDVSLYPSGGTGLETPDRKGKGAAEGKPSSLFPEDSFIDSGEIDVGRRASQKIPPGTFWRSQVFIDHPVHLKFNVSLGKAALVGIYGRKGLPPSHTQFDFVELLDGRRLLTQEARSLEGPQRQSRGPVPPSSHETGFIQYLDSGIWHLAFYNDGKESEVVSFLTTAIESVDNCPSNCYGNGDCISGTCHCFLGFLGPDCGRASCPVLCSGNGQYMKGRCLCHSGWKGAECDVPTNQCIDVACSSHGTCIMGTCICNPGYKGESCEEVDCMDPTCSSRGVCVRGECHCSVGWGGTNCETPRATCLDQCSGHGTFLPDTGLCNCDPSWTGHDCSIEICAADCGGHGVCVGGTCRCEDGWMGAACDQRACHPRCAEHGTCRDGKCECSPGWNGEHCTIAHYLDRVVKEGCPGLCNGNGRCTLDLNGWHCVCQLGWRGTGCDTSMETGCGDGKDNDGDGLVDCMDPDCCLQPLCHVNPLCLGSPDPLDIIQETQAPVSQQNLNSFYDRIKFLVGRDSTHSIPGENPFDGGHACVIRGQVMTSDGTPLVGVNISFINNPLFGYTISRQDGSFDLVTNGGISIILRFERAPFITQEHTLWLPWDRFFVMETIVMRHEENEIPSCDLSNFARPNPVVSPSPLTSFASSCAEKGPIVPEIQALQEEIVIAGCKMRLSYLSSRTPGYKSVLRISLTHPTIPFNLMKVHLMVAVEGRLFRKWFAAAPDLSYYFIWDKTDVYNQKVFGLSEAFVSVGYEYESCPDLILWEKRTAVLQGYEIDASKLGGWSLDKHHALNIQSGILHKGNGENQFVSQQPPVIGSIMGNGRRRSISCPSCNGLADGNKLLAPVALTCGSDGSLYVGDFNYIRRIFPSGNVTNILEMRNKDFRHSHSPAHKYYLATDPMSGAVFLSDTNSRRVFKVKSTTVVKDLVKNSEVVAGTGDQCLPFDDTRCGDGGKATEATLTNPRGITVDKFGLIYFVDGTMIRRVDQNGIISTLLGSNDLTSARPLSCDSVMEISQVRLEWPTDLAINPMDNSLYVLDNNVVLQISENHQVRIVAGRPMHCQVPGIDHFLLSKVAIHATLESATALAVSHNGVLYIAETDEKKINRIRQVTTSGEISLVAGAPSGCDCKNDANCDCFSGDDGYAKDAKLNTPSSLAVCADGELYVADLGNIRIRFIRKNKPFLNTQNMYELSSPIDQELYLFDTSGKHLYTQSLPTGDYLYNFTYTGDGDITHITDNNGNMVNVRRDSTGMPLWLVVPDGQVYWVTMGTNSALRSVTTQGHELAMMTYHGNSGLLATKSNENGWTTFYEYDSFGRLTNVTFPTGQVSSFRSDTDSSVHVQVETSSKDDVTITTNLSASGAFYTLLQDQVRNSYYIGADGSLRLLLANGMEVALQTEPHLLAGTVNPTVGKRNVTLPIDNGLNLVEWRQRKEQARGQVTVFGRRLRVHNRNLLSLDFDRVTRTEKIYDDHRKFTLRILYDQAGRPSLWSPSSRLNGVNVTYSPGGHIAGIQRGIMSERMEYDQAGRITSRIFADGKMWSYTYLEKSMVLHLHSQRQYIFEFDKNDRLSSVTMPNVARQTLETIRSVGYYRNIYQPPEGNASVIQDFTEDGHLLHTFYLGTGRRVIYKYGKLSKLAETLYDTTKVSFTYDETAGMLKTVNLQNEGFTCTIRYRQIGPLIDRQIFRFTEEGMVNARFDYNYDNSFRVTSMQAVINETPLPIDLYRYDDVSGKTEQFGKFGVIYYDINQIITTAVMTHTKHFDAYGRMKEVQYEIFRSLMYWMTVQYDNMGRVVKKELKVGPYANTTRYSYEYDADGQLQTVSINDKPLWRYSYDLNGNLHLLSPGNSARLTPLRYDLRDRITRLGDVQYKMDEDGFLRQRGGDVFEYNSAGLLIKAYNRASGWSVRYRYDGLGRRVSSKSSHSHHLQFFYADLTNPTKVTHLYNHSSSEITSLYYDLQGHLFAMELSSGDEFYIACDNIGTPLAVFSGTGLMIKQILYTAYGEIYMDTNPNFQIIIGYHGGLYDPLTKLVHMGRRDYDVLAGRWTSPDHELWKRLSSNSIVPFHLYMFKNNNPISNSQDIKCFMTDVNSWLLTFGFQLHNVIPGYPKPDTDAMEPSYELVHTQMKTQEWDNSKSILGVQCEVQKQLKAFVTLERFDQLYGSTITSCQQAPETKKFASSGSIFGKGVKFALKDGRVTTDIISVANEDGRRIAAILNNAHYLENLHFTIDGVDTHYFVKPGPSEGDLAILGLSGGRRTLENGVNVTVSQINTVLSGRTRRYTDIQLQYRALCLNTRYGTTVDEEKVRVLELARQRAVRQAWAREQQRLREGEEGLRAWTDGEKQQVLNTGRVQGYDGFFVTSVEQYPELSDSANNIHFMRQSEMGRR

Measured: binding

teneurin paralogue Tenm1, full length mouse (EGFP-tagged as bait; tagRFP/Myc-tagged as prey) (from UniProt Q9WTS4 1-2731)
binds: all assays above

teneurin paralogue Tenm2, full length mouse (EGFP-tagged as bait; tagRFP/Myc-tagged as prey) (from UniProt Q9WTS5 1-2764)
binds: all assays above

teneurin paralogue Tenm3, full length mouse (EGFP-tagged as bait; tagRFP/Myc-tagged as prey) (from UniProt Q9WTS6 1-2715)
binds: [1] | [3] | [4]

teneurin paralogue Tenm4, full length mouse (EGFP-tagged as bait; tagRFP/Myc-tagged as prey) (from UniProt Q3UHK6 1-2771)
binds: all assays above
